According to paper PMC5645412, “AUNIP/C1orf135 directs DNA double-strand breaks towards the homologous recombination repair pathway” (Nature Communications, 2017):
These are yes or no findings as the source states them, for the method shown. In cells and extracts the contact can be indirect. A yes stands for co-enrichment or nearness to the bait. Other partners may have been found. For some of these results: Sequences can lack the tags named with a protein.

Protein sequences, listed by entry. Tags and fused reporters are not part of them.
UniProt Q99708: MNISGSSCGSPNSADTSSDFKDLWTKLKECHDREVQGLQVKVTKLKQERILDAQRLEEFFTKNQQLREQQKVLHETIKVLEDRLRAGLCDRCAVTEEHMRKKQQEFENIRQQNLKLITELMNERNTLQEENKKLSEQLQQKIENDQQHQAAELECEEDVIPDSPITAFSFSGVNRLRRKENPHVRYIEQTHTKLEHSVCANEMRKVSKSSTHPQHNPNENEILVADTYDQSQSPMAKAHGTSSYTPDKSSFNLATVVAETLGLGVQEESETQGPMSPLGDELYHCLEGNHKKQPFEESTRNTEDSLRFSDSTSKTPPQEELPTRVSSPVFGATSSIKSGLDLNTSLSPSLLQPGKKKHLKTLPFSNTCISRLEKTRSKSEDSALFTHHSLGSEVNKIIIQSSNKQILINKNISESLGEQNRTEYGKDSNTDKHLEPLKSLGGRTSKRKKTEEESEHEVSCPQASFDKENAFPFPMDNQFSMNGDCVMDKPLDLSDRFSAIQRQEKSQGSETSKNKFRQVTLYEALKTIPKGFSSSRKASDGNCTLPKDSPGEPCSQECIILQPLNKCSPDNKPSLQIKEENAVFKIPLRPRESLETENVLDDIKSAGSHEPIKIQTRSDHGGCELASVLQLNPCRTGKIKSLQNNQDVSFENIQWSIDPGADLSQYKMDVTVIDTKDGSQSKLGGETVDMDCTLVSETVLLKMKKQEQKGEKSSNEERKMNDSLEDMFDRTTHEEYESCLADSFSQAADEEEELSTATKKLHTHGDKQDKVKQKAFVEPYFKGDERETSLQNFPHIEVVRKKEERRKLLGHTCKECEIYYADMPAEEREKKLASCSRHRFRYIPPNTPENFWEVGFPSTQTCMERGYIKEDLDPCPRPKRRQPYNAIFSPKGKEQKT
UniProt Q92878: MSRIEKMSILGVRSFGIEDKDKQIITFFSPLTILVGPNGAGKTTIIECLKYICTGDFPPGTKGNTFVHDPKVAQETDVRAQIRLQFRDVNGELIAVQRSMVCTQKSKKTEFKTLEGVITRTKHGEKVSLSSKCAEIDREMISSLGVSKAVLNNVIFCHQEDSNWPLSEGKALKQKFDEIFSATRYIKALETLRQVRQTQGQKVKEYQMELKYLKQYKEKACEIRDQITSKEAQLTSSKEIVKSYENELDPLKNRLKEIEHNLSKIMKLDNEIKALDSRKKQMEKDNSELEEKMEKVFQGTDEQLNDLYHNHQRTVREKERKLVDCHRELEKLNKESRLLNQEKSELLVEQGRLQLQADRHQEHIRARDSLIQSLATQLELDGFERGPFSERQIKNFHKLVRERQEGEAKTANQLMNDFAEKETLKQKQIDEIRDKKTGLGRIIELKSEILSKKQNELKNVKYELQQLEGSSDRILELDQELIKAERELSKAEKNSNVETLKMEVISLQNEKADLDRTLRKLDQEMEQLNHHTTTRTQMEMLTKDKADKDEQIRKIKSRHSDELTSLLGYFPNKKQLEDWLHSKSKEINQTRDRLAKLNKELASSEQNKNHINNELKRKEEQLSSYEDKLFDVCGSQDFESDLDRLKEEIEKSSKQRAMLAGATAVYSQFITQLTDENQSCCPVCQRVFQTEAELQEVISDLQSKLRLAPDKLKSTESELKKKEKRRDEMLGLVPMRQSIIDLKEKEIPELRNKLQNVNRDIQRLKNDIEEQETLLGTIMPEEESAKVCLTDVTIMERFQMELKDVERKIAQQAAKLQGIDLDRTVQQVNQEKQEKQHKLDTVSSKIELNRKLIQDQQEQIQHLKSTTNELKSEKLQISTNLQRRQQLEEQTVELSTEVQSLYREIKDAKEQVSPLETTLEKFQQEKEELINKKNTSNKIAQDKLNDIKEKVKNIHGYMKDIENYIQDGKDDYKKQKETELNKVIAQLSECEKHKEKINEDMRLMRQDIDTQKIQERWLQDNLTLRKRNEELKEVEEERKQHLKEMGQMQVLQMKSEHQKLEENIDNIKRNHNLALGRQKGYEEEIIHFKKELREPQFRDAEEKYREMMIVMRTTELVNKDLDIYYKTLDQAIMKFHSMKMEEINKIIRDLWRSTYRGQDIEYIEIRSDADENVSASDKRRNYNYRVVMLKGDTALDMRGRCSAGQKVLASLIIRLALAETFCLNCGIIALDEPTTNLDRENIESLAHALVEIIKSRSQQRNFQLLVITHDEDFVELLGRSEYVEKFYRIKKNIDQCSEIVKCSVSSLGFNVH

T1: SFB-tagged AUNIP (human) (UniProt Q9H7T9)
T1 sequence: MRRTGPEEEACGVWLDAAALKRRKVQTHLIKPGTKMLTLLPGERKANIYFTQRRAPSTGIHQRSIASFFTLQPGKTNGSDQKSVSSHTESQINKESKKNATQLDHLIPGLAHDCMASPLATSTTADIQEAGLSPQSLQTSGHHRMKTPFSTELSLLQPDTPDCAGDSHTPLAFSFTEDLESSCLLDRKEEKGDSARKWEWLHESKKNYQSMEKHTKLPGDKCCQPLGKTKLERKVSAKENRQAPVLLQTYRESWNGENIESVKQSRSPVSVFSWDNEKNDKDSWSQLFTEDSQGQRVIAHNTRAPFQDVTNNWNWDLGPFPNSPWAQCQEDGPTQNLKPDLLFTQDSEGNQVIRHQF


Key:
SFB-tagged AUNIP (human) = biological target: T1, SFB-tagged AUNIP (human); test: affinity purification with mass spectrometry; reverse tandem affinity purification of SFB-AUNIP from stably expressing HEK293T cells: NETN lysate and chromatin extract, streptavidin beads, biotin elution, S-protein Agarose, SDS-PAGE, mass spectrometry
[1] = biological target: SFB-tagged wild-type CtIP (UniProt Q99708); test: affinity purification with mass spectrometry; tandem affinity purification of SFB-CtIP from stably expressing HEK293T cells: NETN lysate and chromatin extract, streptavidin beads, biotin elution, S-protein Agarose, SDS-PAGE, mass spectrometry

| binding (SFB-tagged AUNIP (human)) | binding [1] | Molecule |
| --- | --- | --- |
| binds | binds | RAD50 (from UniProt Q92878 1-1312) |
| binds | – | DNA2 (protein, UniProt P51530 1-1060) MEQLNELELLMEKSFWEEAELPAELFQKKVVASFPRTVLSTGMDNRYLVLAVNTVQNKEGNCEKRLVITASQSLENKELCILRNDWCSVPVEPGDIIHLEGDCTSDTWIIDKDFGYLILYPDMLISGTSIASSIRCMRRAVLSETFRSSDPATRQMLIGTVLHEVFQKAINNSFAPEKLQELAFQTIQEIRHLKEMYRLNLSQDEIKQEVEDYLPSFCKWAGDFMHKNTSTDFPQMQLSLPSDNSKDNSTCNIEVVKPMDIEESIWSPRFGLKGKIDVTVGVKIHRGYKTKYKIMPLELKTGKESNSIEHRSQVVLYTLLSQERRADPEAGLLLYLKTGQMYPVPANHLDKRELLKLRNQMAFSLFHRISKSATRQKTQLASLPQIIEEEKTCKYCSQIGNCALYSRAVEQQMDCSSVPIVMLPKIEEETQHLKQTHLEYFSLWCLMLTLESQSKDNKKNHQNIWLMPASEMEKSGSCIGNLIRMEHVKIVCDGQYLHNFQCKHGAIPVTNLMAGDRVIVSGEERSLFALSRGYVKEINMTTVTCLLDRNLSVLPESTLFRLDQEEKNCDIDTPLGNLSKLMENTFVSKKLRDLIIDFREPQFISYLSSVLPHDAKDTVACILKGLNKPQRQAMKKVLLSKDYTLIVGMPGTGKTTTICTLVRILYACGFSVLLTSYTHSAVDNILLKLAKFKIGFLRLGQIQKVHPAIQQFTEQEICRSKSIKSLALLEELYNSQLIVATTCMGINHPIFSRKIFDFCIVDEASQISQPICLGPLFFSRRFVLVGDHQQLPPLVLNREARALGMSESLFKRLEQNKSAVVQLTVQYRMNSKIMSLSNKLTYEGKLECGSDKVANAVINLRHFKDVKLELEFYADYSDNPWLMGVFEPNNPVCFLNTDKVPAPEQVEKGGVSNVTEAKLIVFLTSIFVKAGCSPSDIGIIAPYRQQLKIINDLLARSIGMVEVNTVDKYQGRDKSIVLVSFVRSNKDGTVGELLKDWRRLNVAITRAKHKLILLGCVPSLNCYPPLEKLLNHLNSEKLIIDLPSREHESLCHILGDFQRE |
| – | binds | GST-tagged AUNIP (wild-type) (natural protein, human, UniProt Q9H7T9 1-357, looked up, AUNIP/C1orf135, human; pCold vectors may add further N-terminal vector residues; also called GST-AUNIP; recombinant GST-AUNIP; source: E. coli BL21, purified on glutathione-Sepharose resin (kept on the beads)) MRRTGPEEEACGVWLDAAALKRRKVQTHLIKPGTKMLTLLPGERKANIYFTQRRAPSTGIHQRSIASFFTLQPGKTNGSDQKSVSSHTESQINKESKKNATQLDHLIPGLAHDCMASPLATSTTADIQEAGLSPQSLQTSGHHRMKTPFSTELSLLQPDTPDCAGDSHTPLAFSFTEDLESSCLLDRKEEKGDSARKWEWLHESKKNYQSMEKHTKLPGDKCCQPLGKTKLERKVSAKENRQAPVLLQTYRESWNGENIESVKQSRSPVSVFSWDNEKNDKDSWSQLFTEDSQGQRVIAHNTRAPFQDVTNNWNWDLGPFPNSPWAQCQEDGPTQNLKPDLLFTQDSEGNQVIRHQF |
